Earlier results in patent US11319331B2, “Probe for selective detection of hypochlorous acid (HOCl) under physiological condition, and related methods” (Council of Scientific & Industrial Research, priority 2017, dated 2022).
At least one compound was matched to its structure with a doubt left.

Conditions: cited from earlier work

CC1=CC(C)=[N+]2C1=C(CCc1[nH]c(C)cc1C)c1c(C)cc(C)n1[B-]2(F)F [BClO]
response time towards HOCl/HClO (literature): ≤ 1 s
